Taken from: PubChem BioAssay AID743458 (Peter MacCallum Cancer Centre, 2014)

- Assay: 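Identify genes whose loss lifts vorinostat resistance in colon cancer cells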 (follow-up of hits)
- Cell system: human HCT116-VR colon cancer cells made resistant to vorinostat
- Reagent: single siRNA or pool against human genes, 25 nM per single siRNA
- Timing: about 72 h after transfection, including 24 h of drug
- Conditions: vorinostat, 2.5 µM final, for 24 h
- Measured: 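Cell viability by fluorescence and apoptosis by caspase 3/7 luminescence under vorinostat, background-corrected, averaged across two plate copies and given as fold change versus mock transfection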
- Scale: viability relative to mock: higher = more living cells than mock; caspase activity relative to mock: higher = more apoptosis than mock
- Call rule: 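Active means a reduced-viability or caspase-activation class, anything else inactive; classes could only be given to wells that looked healthy when left untreated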
The deposit covers about 1,800 reagents; shown is an unselected part. Of all reagents, 732 (41%) are marked active. 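Calls are per siRNA reagent; a gene was deemed confirmed only if most of its four siRNAs scored.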 The numbers tell different reagents against one gene apart.

target | reagent no. | viability relative to mock | caspase activity relative to mock | viability hit class | caspase hit class | Call
THAP3 | 1 | 0.37 | 3.46 | reduced viability | caspase activation | active
THAP3 | 2 | 0.63 | 2.84 | no change | caspase activation | active
THAP3 | 3 | 0.51 | 5.08 | reduced viability | caspase activation | active
THAP3 | 4 | 0.57 | 0.66 | no change | no change | inactive
RERE | 1 | 0.46 | 6.44 | reduced viability | caspase activation | active
RERE | 2 | 1.13 | 1.19 | no change | no change | inactive
RERE | 3 | 0.38 | 4.41 | reduced viability | caspase activation | active
RERE | 4 | 0.42 | 1.96 | reduced viability | no change | active
COL11A2 | 1 | 0.26 | 3.58 | reduced viability | caspase activation | active
COL11A2 | 2 | 0.48 | 5.59 | reduced viability | caspase activation | active
COL11A2 | 3 | 0.66 | 0.81 | no change | no change | inactive
COL11A2 | 4 | 0.8 | 1.85 | no change | no change | inactive
EIF3L | 1 | 0.9 | 2.29 | no change | no change | inactive
EIF3L | 2 | 0.76 | 2.67 | no change | caspase activation | active
EIF3L | 3 | 0.91 | 1.25 | no change | no change | inactive
EIF3L | 4 | 0.87 | 1.46 | no change | no change | inactive

Entries listed above with an active call, once more:
target | reagent no. | viability relative to mock | caspase activity relative to mock | viability hit class | caspase hit class | Call
THAP3 | 1 | 0.37 | 3.46 | reduced viability | caspase activation | active
THAP3 | 2 | 0.63 | 2.84 | no change | caspase activation | active
THAP3 | 3 | 0.51 | 5.08 | reduced viability | caspase activation | active
RERE | 1 | 0.46 | 6.44 | reduced viability | caspase activation | active
RERE | 3 | 0.38 | 4.41 | reduced viability | caspase activation | active
RERE | 4 | 0.42 | 1.96 | reduced viability | no change | active
COL11A2 | 1 | 0.26 | 3.58 | reduced viability | caspase activation | active
COL11A2 | 2 | 0.48 | 5.59 | reduced viability | caspase activation | active
EIF3L | 2 | 0.76 | 2.67 | no change | caspase activation | active

Continued:
target | reagent no. | viability relative to mock | caspase activity relative to mock | viability hit class | caspase hit class | Call
RPAP2 | 1 | 0.32 | 4.73 | no change | no change | inactive
RPAP2 | 2 | 0.98 | 1.25 | no change | no change | inactive
RPAP2 | 3 | 0.74 | 1.46 | no change | no change | inactive
RPAP2 | 4 | 0.94 | 1.09 | no change | no change | inactive
INPP5K | 1 | 1.09 | 2 | no change | no change | inactive
INPP5K | 2 | 0.52 | 2.8 | reduced viability | caspase activation | active
INPP5K | 3 | 0.91 | 1.44 | no change | no change | inactive
INPP5K | 4 | 1.07 | 1.83 | no change | no change | inactive
ZBTB38 | 1 | 0.34 | 1.24 | reduced viability | no change | active
ZBTB38 | 2 | 1.01 | 1.42 | no change | no change | inactive
ZBTB38 | 3 | 1.05 | 2.34 | no change | no change | inactive
ZBTB38 | 4 | 0.68 | 1.68 | no change | no change | inactive
SAR1B | 1 | 0.89 | 0.91 | no change | no change | inactive
SAR1B | 2 | 0.5 | 2.3 | reduced viability | no change | active
SAR1B | 3 | 0.78 | 1.23 | no change | no change | inactive
SAR1B | 4 | 0.4 | 2.33 | reduced viability | no change | active
ERH | 1 | 0.36 | 1.28 | reduced viability | no change | active
ERH | 2 | 0.55 | 2.61 | reduced viability | caspase activation | active
ERH | 3 | 0.67 | 2.06 | no change | no change | inactive
ERH | 4 | 0.84 | 0.82 | no change | no change | inactive
FMC1 | 1 | 0.3 | 3.33 | reduced viability | caspase activation | active
FMC1 | 2 | 0.24 | 3.8 | no change | no change | inactive
FMC1 | 3 | 0.4 | 3.58 | reduced viability | caspase activation | active
FMC1 | 4 | 0.94 | 0.9 | no change | no change | inactive
